# Test results as given in patent publication US5281608A, “Substituted tetrahydropyrido[3',4':4,5]-pyrrolo[3,2-c]quinolines” (American Home Products Corporation, priority 1992, dated 1994).
# For at least one compound, name, drawing or mass did not settle the structure.
# Legend:
# [1] = test system: rat limb bones (IL-1 induced bone resorption); assay: Bone resorption assay (45Ca release from rat limb bones), IL-1 induced; format: cell-based, rat (Sprague-Dawley CD); settings: 48 h
# Protocol: (§1) The ability of the compounds of the invention to modify the process of bone resorption is evaluated in the bone resorption assay measuring ^45 Ca release from rat limb bones.
# (§2) Limb bone preparation. Timed pregnant Sprague-Dawley CD® rats (Charles River) are administered 100 μCi ^45 CaCl2 (NEN calcium -45 NEZ-013) in 100 μl of 0.9% saline, subcutaneously, on day 18 of gestation. The rats are sacrificed the following day by CO2 asphyxiation. The fetuses are removed and the right forelimbs excised and placed in a Petri dish containing ice cold explant medium consisting of modified BGJb -Fitton Jackson media (custom formulation, Gibco No. 78-0088) adjusted to pH 7.3 to which 10 mM TES is added. […] Duplicate 150 μL aliquots of the incubation medium and the bone extract are analyzed for ^45 Ca radioactivity in 5 mL of liquid scintillation cocktail.
# (§3) The percentage of bone ^45 Ca released into the medium is determined as follows: [formula] Results are normally expressed as the ratio of the percent ^45 Ca release of the experimental group versus the appropriate vehicle control, or as an IC50 value.
# [2] = test system: rat limb bones (PTH-induced bone resorption); assay: Bone resorption assay (45Ca release from rat limb bones), PTH-induced; format: cell-based, rat (Sprague-Dawley CD); settings: 48 h
# Protocol: as §1, §2, §3
smiles,measurement,setting,value
"O=C(Nc1ccccc1)N1CCc2[nH]c3c(cnc4cc(Cl)ccc43)c2C1 [Example 7, 3-Chloro-7,9,10,11-tetrahydro-N-phenyl-8H-pyrido-[3',4':4,5]pyrrolo[3,2-c]quinoline-8-carboxamide]","Inhibition of Bone Resorption, IL-1 Induced (activity in words)",[1],Active at 10 μg/ml
same,"Inhibition of Bone Resorption, PTH-Induced (activity in words)",[2],"Active at 10, 5 and 1 μg/ml"
